{"source": "PubChem BioAssay AID686937 (Drosophila RNAi Screening Center, 2013)", "aim": "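Knock-downs that reduce output of a secreted reporter enzyme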 (primary screen)", "cell system": "Drosophila S2 cells expressing secreted horseradish peroxidase", "knock-down reagent": "long dsRNA against Drosophila genes", "timing": "about 5.5 days (5 days dsRNA, then 12 h reporter induction)", "treatment": "reporter expression induced after 5 days of dsRNA, read 12 h later; inducer not stated", "measurement": "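After 5 days of dsRNA and 12 h of reporter induction, medium peroxidase read by chemiluminescence and scored as per-plate z-score; higher values mean more reporter released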", "reading the numbers": "z-score: higher = more reporter secreted into medium", "note": "The deposit covers about 23,000 reagents; this is an unselected part of those that have a named target and a result. 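Reduced-secretion tags in replicate 1 do not always agree with the z-scores; no criterion for assigning the tags was given.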 Names joined by + are all predicted targets of the reagent. Not all columns of the deposit are shown. The record does not give: the amount of reagent."}
{"target gene": "Ugt303B2", "DRSC id": "DRSC14198", "z-score, replicate 1": 0.44}
{"target gene": "Ugt303B2", "DRSC id": "DRSC22864", "z-score, replicate 1": 0.64}
{"target gene": "Vtld + CG42529", "DRSC id": "DRSC10102", "z-score, replicate 1": 0.25}
{"target gene": "PolD2", "DRSC id": "DRSC08147", "z-score, replicate 1": 0.77}
{"target gene": "ND-19", "DRSC id": "DRSC04404", "z-score, replicate 1": 0.22}

The list goes on (2 carried over from the part before).
{"target gene": "PolD2", "DRSC id": "DRSC08147", "z-score, replicate 1": 0.77}
{"target gene": "ND-19", "DRSC id": "DRSC04404", "z-score, replicate 1": 0.22}
{"target gene": "CG15141", "DRSC id": "DRSC02441", "z-score, replicate 1": 0.36}
{"target gene": "CG15141", "DRSC id": "DRSC02442", "z-score, replicate 1": 0.16}
{"target gene": "CG43124", "DRSC id": "DRSC13867", "z-score, replicate 1": 0.45}
{"target gene": "CG14453", "DRSC id": "DRSC11710", "z-score, replicate 1": 0.22}
{"target gene": "CG7386", "DRSC id": "DRSC10832", "z-score, replicate 1": 0.52}
{"target gene": "FoxP", "DRSC id": "DRSC15159", "z-score, replicate 1": 0.15}
{"target gene": "FoxP", "DRSC id": "DRSC21961", "z-score, replicate 1": -0.88}
{"target gene": "CG12164", "DRSC id": "DRSC06115", "z-score, replicate 1": 0.14}
{"target gene": "CG12164", "DRSC id": "DRSC21777", "z-score, replicate 1": -0.48}
{"target gene": "Or83c", "DRSC id": "DRSC12359", "z-score, replicate 1": -0.05}
{"target gene": "spab", "DRSC id": "DRSC07112", "z-score, replicate 1": 0.12}
